Assay [1] deals with DPP9-AFE(L8P)-YFP (human). Nature of the assay: co-IP; HEK293T cells co-transfected with YFP-tagged DPP9 isoforms and NLRP1-Flag; NP-40 lysis buffer (50 mM Tris-HCl pH 7.4, 150 mM NaCl, 1% NP-40, 5 mM EDTA); GFP-Trap magnetic agarose beads overnight at 4 °C; blots with α-GFP and α-Flag.
Assay [2] has as its target DPP9-AFE-YFP (human). Described as above.

Results are given in words; binding and its absence hold for the method and conditions named. In cells and extracts the contact can be indirect. Binding can be weak; no strength is given. Tags and fused reporters may be left off the sequences shown.

The values that follow come from paper PMC13429693, “Disease-associated genetic variants can cause missense effects in tissue-specific protein isoforms” (Nature Communications, 2026).

B1: NLRP1-Flag (protein, UniProt Q9C000 1-1473)
chain: MAGGAWGRLACYLEFLKKEELKEFQLLLANKAHSRSSSGETPAQPEKTSGMEVASYLVAQYGEQRAWDLALHTWEQMGLRSLCAQAQEGAGHSPSFPYSPSEPHLGSPSQPTSTAVLMPWIHELPAGCTQGSERRVLRQLPDTSGRRWREISASLLYQALPSSPDHESPSQESPNAPTSTAVLGSWGSPPQPSLAPREQEAPGTQWPLDETSGIYYTEIREREREKSEKGRPPWAAVVGTPPQAHTSLQPHHHPWEPSVRESLCSTWPWKNEDFNQKFTQLLLLQRPHPRSQDPLVKRSWPDYVEENRGHLIEIRDLFGPGLDTQEPRIVILQGAAGIGKSTLARQVKEAWGRGQLYGDRFQHVFYFSCRELAQSKVVSLAELIGKDGTATPAPIRQILSRPERLLFILDGVDEPGWVLQEPSSELCLHWSQPQPADALLGSLLGKTILPEASFLITARTTALQNLIPSLEQARWVEVLGFSESSRKEYFYRYFTDERQAIRAFRLVKSNKELWALCLVPWVSWLACTCLMQQMKRKEKLTLTSKTTTTLCLHYLAQALQAQPLGPQLRDLCSLAAEGIWQKKTLFSPDDLRKHGLDGAIISTFLKMGILQEHPIPLSYSFIHLCFQEFFAAMSYVLEDEKGRGKHSNCIIDLEKTLEAYGIHGLFGASTTRFLLGLLSDEGEREMENIFHCRLSQGRNLMQWVPSLQLLLQPHSLESLHCLYETRNKTFLTQVMAHFEEMGMCVETDMELLVCTFCIKFSRHVKKLQLIEGRQHRSTWSPTMVVLFRWVPVTDAYWQILFSVLKVTRNLKELDLSGNSLSHSAVKSLCKTLRRPRCLLETLRLAGCGLTAEDCKDLAFGLRANQTLTELDLSFNVLTDAGAKHLCQRLRQPSCKLQRLQLVSCGLTSDCCQDLASVLSASPSLKELDLQQNNLDDVGVRLLCEGLRHPACKLIRLGLDQTTLSDEMRQELRALEQEKPQLLIFSRRKPSVMTPTEGLDTGEMSNSTSSLKRQRLGSERAASHVAQANLKLLDVSKIFPIAEIAEESSPEVVPVELLCVPSPASQGDLHTKPLGTDDDFWGPTGPVATEVVDKEKNLYRVHFPVAGSYRWPNTGLCFVMREAVTVEIEFCVWDQFLGEINPQHSWMVAGPLLDIKAEPGAVEAVHLPHFVALQGGHVDTSLFQMAHFKEEGMLLEKPARVELHHIVLENPSFSPLGVLLKMIHNALRFIPVTSVVLLYHRVHPEEVTFHLYLIPSDCSIRKAIDDLEMKFQFVRIHKPPPLTPLYMGCRYTVSGSGSGMLEILPKELELCYRSPGEDQLFSEFYVGHLGSGIRLQVKDKKDETLVWEALVKPGDLMPATTLIPPARIAVPSPLDAPQLLHFVDQYREQLIARVTSVEVVLDKLHGQVLSQEQYERVLAENTRPSQMRKLFSLSQSWDRKCKDGLYQALKETHPHLIMELWEKGSKKGLLPLSS
Turning to B1, the binding entry in assay [1] and in assay [2] was “binds” throughout.
